# Entries after “also recorded” stand apart in the source; their conditions may differ. At least one structure is not confirmed: it was looked up by name or label, or the drawing left a doubt.
# Tests used:
# [1] = tested on: mice in lethal hypoxia; assay: Survival of H2S pre-treated mice in lethal hypoxia; format: in vivo, mouse
# Description: FIG. 11 Survival of Mice in 5% Oxygen.
# Experiments were stopped at 60 minutes and if the animals still alive were returned to their cage.
# [2] = cited from earlier work
# [3] = tested on: C. elegans; assay: Thermotolerance of C. elegans adapted to H2S; format: in vivo; conditions: data not shown
# Source text: A: Adapted animals survive at high temperature longer than unadapted controls. Adapted animals were exposed to high temperature in H2S as young adults.
# [4] = tested on: Drosophila melanogaster; assay: Anoxia tolerance of adult flies after CO2 and/or H2S pretreatment; format: in vivo
# Description: Basic experimental setup. Adult flies were introduced into 35 mL tubes made of glass with a gas-tight rubber stopper (Balsh tubes). This was usually accomplished by anesthetizing flies with CO2, moving groups of flies to vials with food to recover for at least 2 hours, and then transferring them into the Balsh tube. To exchange the gaseous environment in the Balsh tube, two 18 gauge needles were inserted into the rubber stopper, and gas is blown into one of the needles at 100 mL/min. To prevent dessication, gasses were humidified by bubbling through 10 mL of water before passing it through the Balsch tube. The water in the bubbler is equilibrated with the gas for at least 20 minutes before starting the experiment.
# For “stopped-flow” experiments, gas exchange proceeded for 60 minutes before sealing the tube. For “low-flow” experiments, gas flow continued throughout the experiment. CO2 was from the house source (100%), and anoxic environments were established by flushing out room air with 100% nitrogen (N2). Care was taken to prevent introduction of room air into the system while switching the atmosphere from CO2 to N2.
# After anoxic treatment, oxygen was reintroduced into the Balsh tube by flushing with house air for 20 minutes. […] Viability was scored at least 18 hours after the end of anoxic treatment. […]
# [5] = tested on: mice; assay: Metabolic rate (CO2 production, O2 consumption) of mice with H2S and hypoxia; format: in vivo, mouse
# Description: FIG. 14 Metabolic Rate of a Mouse in 5% Oxygen. […] Metabolic rate measured by CO2 output. […] At hour 6 the mouse was returned to room air and allowed to recover.
# FIG. 15 CO2 Production During Transition to Lethal Hypoxia. […] In addition, the change in CO2 production upon step-wise transition to 5% O2 for 1 hr followed by 4% O2 was measured. The percent change in CO2 production is plotted with standard error indicated.
# Relative carbon dioxide production and oxygen consumption of a mouse when pretreated and exposed to 5% O2. […] These experiments were done at Ta=13° C. so they could be compared to our previous studies. Values are the means from three animals and the error bars represent one standard deviation. p-values indicate the significance between the bars with the same symbols.
# To determine the rate of consumption of oxygen or the rate of production of carbon dioxide the biological matter is placed into a chamber that is sealed with two openings; for gas import and export. Gas (room air or other gases) is passed into the chamber at a given flow rate and out of the exit port to maintain approximately 1 atmosphere of pressure in the chamber. Before and after exposure to the chamber the gas is passed through a carbon dioxide detector and or an oxygen detector to measure (every second) the amount of each compound in the gas mixture. Comparison of these values over time gives the rate of oxygen consumption or carbon dioxide production.
# In addition, the change in CO2 production upon step-wise transition to 5% O2 for 1 hr followed by 4% O2 was measured.
# [6] = tested on: hemorrhage in Sprague Dawley rats; assay: Short-term exposure to 2000 ppm hydrogen sulfide during hemorrhage; format: in vivo, rat
smiles,measurement,setting,value
"S [H2S, Hydrogen sulfide]",Survival of some pre-treated mice in 5% O2,"[1]; 150 ppm H2S pre-treatment, no noticeable motor or behavioral deficits",more than four hours
same,Animals still alive at 60 minutes in 5% O2,[1]; 20 minutes of 150 ppm H2S in room air before 5% O2,all of the experimental; also recorded: all of the mice
same,Survival in 4% O2,[1]; H2S pre-treatment,small increase in survival
same,Survival time with step-wise reduction in O2,"[1]; H2S pre-treatment, 1 hour 5% O2, then 4% O2 or 3% O2",enhanced to the same level as that observed when they were exposed to 5% O2
same,Survival at 3% O2,[1]; pretreatment protocol,several hours
same,Equilibrium constant K1,[2]; dissociation of H2S to bisulfide ion,1.039 E^−07
same,Equilibrium constant K2,[2]; dissociation of bisulfide ion to sulfide ion,6.43 E^−16
same,Thermotolerance after adaptation to H2S,[3]; daf-2(e1370) mutant,even more resistant to thermal stress
same,Thermotolerance after adaptation to H2S,[3]; eat-2(ad1116) mutant animals,become thermotolerant
same,Thermotolerance after adaptation to H2S,[3]; isp-1(qm150) and clk-1(qm30) mutants,became thermotolerant
same,Survival of high concentrations of H2S,[3]; sir-2.1(ok434) animals grown in low concentrations of H2S,all survive high concentrations of H2S
same,Fraction of flies that survive anoxia,"[4]; 50 ppm H2S added to the CO2 pretreatment, low-flow (FIG. 10)",increases fraction of flies that survive anoxia
same,Recovery of adult flies,[4]; H2S present throughout the anoxic exposure (20 h),no flies recover
same,CO2 production,[5]; 4% O2 after H2S pretreatment,substantial decrease in CO2 production
same,CO2 evolution on transition to lethal hypoxia,[5]; after H2S pre-treatment,prevented any further decrease in CO2 evolution
same,O2 consumption and core body temperature,[5]; during the H2S pre-treatment,did not change significantly
same,Reduction of CO2 production,[5]; first five to ten minutes of pre-treatment with 150 ppm H2S,two to three-fold
same,Physiological response at which exposure was terminated,[6]; 2000 ppm hydrogen sulfide,apnea and dystonia
same,Animals that survived the treatment,"[6]; 2000 ppm hydrogen sulfide in room air 20 min into 40 min bleed, until apnea and dystonia",7 out of 8

# — patent US20080226750A1, “Methods, Compositions and Articles of Manufacture for Treating Shock and Other Adverse Conditions” (priority 2006, published 2008)
